Laboratory results: PubChem BioAssay AID686937 (Drosophila RNAi Screening Center, 2013)
The screen tested about 23,000 reagents; below is an unselected part of those with a known target gene and a result. 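Reduced-secretion tags in replicate 1 do not always agree with the z-scores; no criterion for assigning the tags was given.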 Reagents against one gene are numbered here. A plus sign joins genes that one reagent is predicted to hit. Further read-outs or replicates are left out here. No sequences are given here. The record does not give: the amount of reagent.

Screen: 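Genes in the fly needed for secretion of protein constitutively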 (primary screen)
Cells: Drosophila S2 cells expressing secreted horseradish peroxidase
Reagent: long dsRNA against Drosophila genes
Timing: about 5.5 days (5 days dsRNA, then 12 h reporter induction)
Conditions: reporter expression induced after 5 days of dsRNA, read 12 h later; inducer not stated
Read-out: 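Chemiluminescent measurement of peroxidase in the medium 12 h after reporter induction, following 5 days of dsRNA, given as a z-score per plate; higher means more secretion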
Reading the numbers: z-score: higher = more reporter secreted into medium

Against sw, the values are z-score, replicate 1 = -0.14. For MtnA, the values are z-score, replicate 1 = -0.05. After knock-down of Galphaf the results were z-score, replicate 1 = 0.15. CG7246 showed z-score, replicate 1 = -2.61. Against CG3330, the entry reads z-score, replicate 1 = 0.41. Depletion of CG34178 + CG34177 came out at: z-score, replicate 1 = 0.39.

Silencing of ms(2)35Ci gave: z-score, replicate 1 = 0.62. With knock-down of CG30414 the results were z-score, replicate 1 = 0.15. Syx7 scored z-score, replicate 1 = 0.33. After knock-down of nod #1, the screen gave z-score, replicate 1 = 0.17. nod #2 scored z-score, replicate 1 = 0.22. Moe gave z-score, replicate 1 = 0.36.

Against His-Psi:CR31616 + His-Psi:CR31615, the values are z-score, replicate 1 = -3.25; phenotype, replicate 1 = reduced secretion. After knock-down of Prp39, the screen gave z-score, replicate 1 = 0.37. Depletion of RpL7A gave: z-score, replicate 1 = -1.66; phenotype, replicate 1 = reduced secretion. After knock-down of CG9406, the screen gave z-score, replicate 1 = 1.31. Depletion of CG32756 came out at: z-score, replicate 1 = -0.15. With knock-down of CG13751, the screen gave z-score, replicate 1 = 0.3.

Silencing of Cyp6t1 resulted in: z-score, replicate 1 = 0.62. For CG4951 the deposit lists z-score, replicate 1 = 0.39. Knock-down of bond gave: z-score, replicate 1 = 0.32. Against Usp14, the entry reads z-score, replicate 1 = 0.37. For mRpL11 the deposit lists z-score, replicate 1 = 0.17. With knock-down of Pex13 the results were z-score, replicate 1 = 0.13.

With knock-down of Swim, the screen gave z-score, replicate 1 = -0.05. For gb the deposit lists z-score, replicate 1 = 0.33.

7 consecutive records already listed, for reference:
Moe — z-score, replicate 1 = 0.36
His-Psi:CR31616 + His-Psi:CR31615 — z-score, replicate 1 = -3.25; phenotype, replicate 1 = reduced secretion
Prp39 — z-score, replicate 1 = 0.37
RpL7A — z-score, replicate 1 = -1.66; phenotype, replicate 1 = reduced secretion
CG9406 — z-score, replicate 1 = 1.31
CG32756 — z-score, replicate 1 = -0.15
CG13751 — z-score, replicate 1 = 0.3

Further records follow:
After knock-down of TTLL3A the results were z-score, replicate 1 = 0.35. For CG10543, the entry reads z-score, replicate 1 = 0.01. Rpn2 scored z-score, replicate 1 = -8.11; phenotype, replicate 1 = reduced secretion. For Elp6, the values are z-score, replicate 1 = 0.07. Silencing of Or46a + asRNA:CR43467 #1 resulted in: z-score, replicate 1 = 0.37. After knock-down of Or46a + asRNA:CR43467 #2 the results were z-score, replicate 1 = 0.27.

With knock-down of Or46a + asRNA:CR43467 #3 the results were z-score, replicate 1 = 1.59. Against Or24a, the entry reads z-score, replicate 1 = 0.68. CG13634 gave z-score, replicate 1 = 0.26. Silencing of Agpat2 came out at: z-score, replicate 1 = 0.3. Against Ilp7 the deposit lists z-score, replicate 1 = 0.49. CG43861 #1 showed z-score, replicate 1 = 0.1.

Silencing of CG43861 #2 came out at: z-score, replicate 1 = 0.02. mahe showed z-score, replicate 1 = 0.21. Silencing of CG31265 resulted in: z-score, replicate 1 = 0.3. RpS17 showed z-score, replicate 1 = -4.03; phenotype, replicate 1 = reduced secretion. Depletion of Gorab gave: z-score, replicate 1 = 0.28. With knock-down of CG11294, the screen gave z-score, replicate 1 = 0.36.

For stl, the entry reads z-score, replicate 1 = 0.17. Silencing of goe resulted in: z-score, replicate 1 = 0.13. After knock-down of cona the results were z-score, replicate 1 = 0.05. Knock-down of CG10934 gave: z-score, replicate 1 = 0.38. Mppe showed z-score, replicate 1 = 0.25. Against Sox15, the values are z-score, replicate 1 = -0.9.

Cad99C #1 gave z-score, replicate 1 = 0.19. Silencing of Cad99C #2 came out at: z-score, replicate 1 = 0.53.
